In PMC11254748 one finds binding data, which are given here for two molecules.

Sequences of proteins named here, by UniProt entry; tags and fusion partners are left off.
UniProt O60934: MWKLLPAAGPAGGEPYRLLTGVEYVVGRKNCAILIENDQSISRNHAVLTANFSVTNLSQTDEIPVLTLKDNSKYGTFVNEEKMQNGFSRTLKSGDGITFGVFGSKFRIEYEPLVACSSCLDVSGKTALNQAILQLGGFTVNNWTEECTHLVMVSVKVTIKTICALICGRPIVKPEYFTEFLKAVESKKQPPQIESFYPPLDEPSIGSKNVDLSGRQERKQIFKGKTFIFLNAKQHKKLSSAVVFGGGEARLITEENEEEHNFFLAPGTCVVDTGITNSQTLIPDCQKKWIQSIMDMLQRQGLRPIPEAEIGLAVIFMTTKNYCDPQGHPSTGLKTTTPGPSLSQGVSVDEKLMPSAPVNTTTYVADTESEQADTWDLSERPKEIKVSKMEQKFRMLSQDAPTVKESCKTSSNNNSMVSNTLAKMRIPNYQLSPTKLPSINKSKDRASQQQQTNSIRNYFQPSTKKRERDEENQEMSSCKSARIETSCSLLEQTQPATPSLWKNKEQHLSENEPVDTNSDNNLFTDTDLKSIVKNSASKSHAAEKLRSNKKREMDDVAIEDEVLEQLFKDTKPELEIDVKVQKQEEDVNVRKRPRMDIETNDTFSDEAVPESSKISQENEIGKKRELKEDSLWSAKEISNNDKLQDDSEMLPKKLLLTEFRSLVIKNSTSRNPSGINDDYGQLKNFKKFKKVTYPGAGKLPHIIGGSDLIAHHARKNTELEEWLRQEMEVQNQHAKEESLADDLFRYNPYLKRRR
UniProt Q92993: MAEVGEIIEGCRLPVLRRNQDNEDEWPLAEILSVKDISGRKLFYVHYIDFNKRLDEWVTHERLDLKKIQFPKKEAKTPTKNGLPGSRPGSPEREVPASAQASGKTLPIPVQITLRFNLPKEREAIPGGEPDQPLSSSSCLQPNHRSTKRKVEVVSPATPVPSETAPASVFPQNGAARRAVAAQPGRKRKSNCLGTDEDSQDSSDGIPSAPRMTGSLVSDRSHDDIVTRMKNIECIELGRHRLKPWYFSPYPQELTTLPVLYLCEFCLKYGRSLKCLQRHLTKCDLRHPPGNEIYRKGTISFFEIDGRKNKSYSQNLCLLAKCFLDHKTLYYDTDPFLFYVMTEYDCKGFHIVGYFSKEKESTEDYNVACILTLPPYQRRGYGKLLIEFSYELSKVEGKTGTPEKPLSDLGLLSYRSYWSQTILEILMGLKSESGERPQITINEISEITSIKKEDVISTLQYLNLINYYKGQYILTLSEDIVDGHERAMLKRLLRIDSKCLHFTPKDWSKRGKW

The target in this experiment is NBS1 (endogenous, wild type, AGS-P cells) (human (endogenous in AGS)) (UniProt O60934). Briefly: affinity purification with mass spectrometry; immunoprecipitation with anti-NBS1 from AGS-P cell lysates, eluted samples analysed by LC–MS/MS.

No constants are given. Whether binding was seen depends on the method and setting. Binding seen in cells or lysates may run through a third protein. Here binding means that the protein was enriched with, or labelled near, the bait; the list need not be complete.

Turning to “TIP60 (endogenous, AGS-P cells) (from UniProt Q92993 1-513) (enzyme)”, the binding entry is given as “binds”.

B1: TCOF1 (endogenous, AGS-P cells) (protein, UniProt Q13428 1-1488)
chain: MAEARKRRELLPLIYHHLLRAGYVRAAREVKEQSGQKCFLAQPVTLLDIYTHWQQTSELGRKRKAEEDAALQAKKTRVSDPISTSESSEEEEEAEAETAKATPRLASTNSSVLGADLPSSMKEKAKAETEKAGKTGNSMPHPATGKTVANLLSGKSPRKSAEPSANTTLVSETEEEGSVPAFGAAAKPGMVSAGQADSSSEDTSSSSDETDVEGKPSVKPAQVKASSVSTKESPARKAAPAPGKVGDVTPQVKGGALPPAKRAKKPEEESESSEEGSESEEEAPAGTRSQVKASEKILQVRAASAPAKGTPGKGATPAPPGKAGAVASQTKAGKPEEDSESSSEESSDSEEETPAAKALLQAKASGKTSQVGAASAPAKESPRKGAAPAPPGKTGPAVAKAQAGKREEDSQSSSEESDSEEEAPAQAKPSGKAPQVRAASAPAKESPRKGAAPAPPRKTGPAAAQVQVGKQEEDSRSSSEESDSDREALAAMNAAQVKPLGKSPQVKPASTMGMGPLGKGAGPVPPGKVGPATPSAQVGKWEEDSESSSEESSDSSDGEVPTAVAPAQEKSLGNILQAKPTSSPAKGPPQKAGPVAVQVKAEKPMDNSESSEESSDSADSEEAPAAMTAAQAKPALKIPQTKACPKKTNTTASAKVAPVRVGTQAPRKAGTATSPAGSSPAVAGGTQRPAEDSSSSEESDSEEEKTGLAVTVGQAKSVGKGLQVKAASVPVKGSLGQGTAPVLPGKTGPTVTQVKAEKQEDSESSEEESDSEEAAASPAQVKTSVKKTQAKANPAAARAPSAKGTISAPGKVVTAAAQAKQRSPSKVKPPVRNPQNSTVLARGPASVPSVGKAVATAAQAQTGPEEDSGSSEEESDSEEEAETLAQVKPSGKTHQIRAALAPAKESPRKGAAPTPPGKTGPSAAQAGKQDDSGSSSEESDSDGEAPAAVTSAQVIKPPLIFVDPNRSPAGPAATPAQAQAASTPRKARASESTARSSSSESEDEDVIPATQCLTPGIRTNVVTMPTAHPRIAPKASMAGASSSKESSRISDGKKQEGPATQVSKKNPASLPLTQAALKVLAQKASEAQPPVARTQPSSGVDSAVGTLPATSPQSTSVQAKGTNKLRKPKLPEVQQATKAPESSDDSEDSSDSSSGSEEDGEGPQGAKSAHTLGPTPSRTETLVEETAAESSEDDVVAPSQSLLSGYMTPGLTPANSQASKATPKLDSSPSVSSTLAAKDDPDGKQEAKPQQAAGMLSPKTGGKEAASGTTPQKSRKPKKGAGNPQASTLALQSNITQCLLGQPWPLNEAQVQASVVKVLTELLEQERKKVVDTTKESSRKGWESRKRKLSGDQPAARTPRSKKKKKLGAGEGGEASVSPEKTSTTSKGKAKRDKASGDVKEKKGKGSLGSQGAKDEPEEELQKGMGTVEGGDQSNPKSKKEKKKSDKRKKDKEKKEKKKKAKKASTKDSESPSQKKKKKKKKTAEQTV
Regarding B1, the binding entry was “binds”.
